What all share (type): physicochemical
The nature of series [1]: TVD device simulation experiment, cold finger as Δ^9-THC trap (desorption from α-alumina particles, GC analysis). Conditions: for Accounted For in Sample By GC Analysis: sample: spent α-alumina particles; for Accounted For in Sample By GC Analysis / Δ^9-THC Accounted For in Sample By GC Analysis: 5.00 mg starting content.
Series [2] is described as follows: Loading of Δ^9-THC onto α-alumina particles: loading amount and distribution by GC. Conditions: α-alumina particles (100 mesh), loaded from ethanolic solution.
A short description of series [3]: Thermo-gravimetric analysis (TGA) desorption experiment.

Consider `CCCCCc1cc(O)c2c(c1)OC(C)(C)c1ccc(C)cc1-2` [Cannabinol, cannabinol], for which the “Accounted For in Sample By GC Analysis” value in series [1] is given as 3.92 μg: Cannabinol.

Turning to `CCCCCc1cc(O)c2c(c1)OC(C)(C)[C@@H]1CCC(C)=C[C@@H]21` [Δ^9-THC, delta-9-tetrahydrocannabinol], the “Δ^9-THC loading amount” value in series [2] worked out at 0.85 mg per 100 mg α-Alumina. In addition, the “Material Balance (percent)” value in series [1] (cold finger trap, relative to 5.00 mg starting content) is “(92.9%)”; in series [3] (TGA experiment, relative to 3.25 mg starting content), “(92.3%)”. Besides, the “Δ^9-THC Accounted For in Sample By GC Analysis” value in series [1] (sample: cloth filter-bottom) was 0 μg: Δ^9-THC; in series [1] (sample: cloth filter-top), 157.30 μg: Δ^9-THC; in series [1] (sample: cold finger, about 350-400° C. for about 15 min), 0 μg: Δ^9-THC; in series [1] (sample: glass tube) it was 112.15 μg: Δ^9-THC; in series [3] (sample: condensate collected on the lid of the TGA sample chamber, 3.25 mg starting content, 350° C. for 10 minutes) it was 254.94 µg. Also, the “Accounted For in Sample By GC Analysis” value in series [1] is on record as 84.21 μg: Δ^9-THC.

These data come from patent US20020117175A1, “Thermal vaporizing device for drug delivery” (priority 2000, published 2002).
